Measurements reported in article PMC12528419.
Results are given in words; binding and its absence hold for the method and conditions named. Binding seen in cells or lysates may run through a third protein. Binding calls can cover weak binding; strength is not graded here. Tags and fused reporters may be left off the sequences shown.

B1: GFP:PDZ(DH/PH) (amino acids 702-1152 of human PDZ RhoGEF fused to GFP) (domain or fragment, UniProt O15085 702-1152)
chain: GQLSDLEPEPDAQNWQHTVGKDVVAGLTQREIDRQEVINELFVTEASHLRTLRVLDLIFYQRMKKENLMPREELARLFPNLPELIEIHNSWCEAMKKLREEGPIIKEISDLMLARFDGPAREELQQVAAQFCSYQSIALELIKTKQRKESRFQLFMQEAESHPQCRRLQLRDLIISEMQRLTKYPLLLESIIKHTEGGTSEHEKLCRARDQCREILKYVNEAVKQTENRHRLEGYQKRLDATALERASNPLAAEFKSLDLTTRKMIHEGPLTWRISKDKTLDLHVLLLEDLLVLLQKQDEKLLLKCHSKTAVGSSDSKQTFSPVLKLNAVLIRSVATDKRAFFIICTSKLGPPQIYELVALTSSDKNTWMELLEEAVRNATRHPGAAPMPVHPPPPGPREPAQQGPTPSRVELDDSDVFHGEPEPEELPGGTGSQQRVQGKHQVLLEDPEQ
B2: GFP:PDZ^dom (amino acids 1-219 of human PDZ RhoGEF fused to GFP) (domain or fragment, UniProt O15085 1-219)
chain: MSVRLPQSIDRLSSLSSLGDSAPERKSPSHHRQPSDASETTGLVQRCVIIQKDQHGFGFTVSGDRIVLVQSVRPGGAAMKAGVKEGDRIIKVNGTMVTNSSHLEVVKLIKSGAYVALTLLGSSPSSMGISGLQQDPSPAGAPRITSVIPSPPPPPPLPPPQRITGPKPLQDPEVQKHATQILRNMLRQEEKELQDILPLYGDTSQRPSEGRLSLDSQEG
B3: GFP:PDZ(C-term) (amino acids 1168-1522 of human PDZ RhoGEF fused to GFP) (domain or fragment, UniProt O15085 1168-1522)
chain: STSLDGENRGIRTRNPIHLAFPGPLFMEGLADSALEDVENLRHLILWSLLPGHTMETQAAQEPEDDLTPTPSVISVTSHPWDPGSPGQAPPGGEGDNTQLAGLEGERPEQEDMGLCSLEHLPPRTRNSGIWESPELDRNLAEDASSTEAAGGYKVVRKAEVAGSKVVPALPESGQSEPGPPEVEGGTKATGNCFYVSMPSGPPDSSTDHSEAPMSPPQPDSLPAGQTEPQPQLQGGNDDPRRPSRSPPSLALRDVGMIFHTIEQLTLKLNRLKDMELAHRELLKSLGGESSGGTTPVGSFHTEAARWTDGSLSPPAKEPLASDSRNSHELGPCPEDGSDAPLEDSTADAAASPGP

Each binder was assayed against GST-SRs 31-37 (spectrin repeats 31-37 of human Nesprin-2 fused to GST) (human) (assay: pull-down; 1 mg cell lysate incubated with 1 μg GST protein on glutathione-agarose beads for 4 h at 4 °C; washed three times with immunoprecipitation/kinase buffer (50 mM Hepes pH 7.5, 150 mM NaCl, 1 mM EDTA, 2.5 mM EGTA, 10% glycerol, 0.1% Tween 20); SDS PAGE and Western blotting; only the target purified).

Q: With B1 as the binder, how does the binding read?
A: binds

Q: For B2, which binding is on record?
A: no binding (tested: 1 mg cell lysate with 1 μg GST protein)

Q: For B3, which binding is on record?
A: no binding (tested: 1 mg cell lysate with 1 μg GST protein)
